According to US20060199770A1 (priority 2003, published 2006):
Where no end group is shown, it is not given here.

Experiment: peptide synthesis
Conditions: conjugation step

Ac-CGSGVRGDFGSLAPRVARQL
conjugation yield: 79%
